# Patent publication US20100137275A1 (IPSEN PHARMA S.A.S., priority 2007, published 2010)
# Some results were stated once for a whole list of compounds, not compound by compound.
# Molecular target: T1, purified recombinant Cdc25-C enzyme (MBP-Cdc25C protein) (Homo sapiens, UniProt P30307)
# T1 construct: made in house
# T1 sequence (P30307 1-473): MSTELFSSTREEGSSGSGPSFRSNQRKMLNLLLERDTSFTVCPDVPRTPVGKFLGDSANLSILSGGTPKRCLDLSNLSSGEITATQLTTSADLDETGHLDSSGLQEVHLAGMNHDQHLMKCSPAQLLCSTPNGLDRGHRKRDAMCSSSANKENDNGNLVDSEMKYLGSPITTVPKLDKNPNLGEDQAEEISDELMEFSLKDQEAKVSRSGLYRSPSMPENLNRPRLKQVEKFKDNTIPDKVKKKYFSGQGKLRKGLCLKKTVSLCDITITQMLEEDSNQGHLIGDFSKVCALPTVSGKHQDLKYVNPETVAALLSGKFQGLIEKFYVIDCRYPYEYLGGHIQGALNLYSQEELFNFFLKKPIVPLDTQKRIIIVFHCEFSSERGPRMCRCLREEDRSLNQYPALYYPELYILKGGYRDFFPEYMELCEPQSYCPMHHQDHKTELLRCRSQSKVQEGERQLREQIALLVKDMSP
# Test: Phosphatase activity of the purified recombinant Cdc25C enzyme (OMFP dephosphorylation, fluorescence)
# Format: biochemical
# Details: OMFP 500 μM, 4 hours at 30° C.
# Protocol: The phosphatase activity of the MBP-Cdc25C protein is evaluated through its dephosphorylation of 3-O-methylfluorescein-phosphate (OMFP) to form 3-O-methylfluorescein (OMF), determining the fluorescence of the reaction product at 475 nm. This assay can be used to identify inhibitors of the recombinant Cdc25 enzyme. The preparation of the MBP-Cdc25C fusion protein is described in patent application PCT WO 01/44467.
# The reaction is performed in 384-well plates in a final volume of 50 μl. The MBP-Cdc25C protein (prepared as described hereinabove) is stored in the following elution buffer: 20 mM Tris-HCl pH 7.4; 250 mM NaCl; 1 mM EDTA; 1 mM dithiothreitol (DTT); 10 mM maltose. It is diluted to a concentration of 60 μM in the following reaction buffer: 50 mM Tris-HCl pH 8.2; 50 mM NaCl; 1 mM DTT; 20% glycerol. The background noise is determined using with the buffer without addition of the enzyme. The products are tested at decreasing concentrations from 40 μM. The reaction is initiated by the addition of a solution OMFP to a final concentration of 500 μM (prepared immediately before use from a 12.5 mM stock solution in 100% DMSO (Sigma #M2629)). After 4 hours at 30° C. in a disposable 384-well plate, the fluorescence measured at OD 475 nm is read on a Victor^2 plate reader (EGG-Wallac). The concentration that produces 50% inhibition of the enzyme reaction is calculated from three independent experiments. Only the values that fall within the linear part of the sigmoid curve are used for the linear regression analysis.
row,Structure (SMILES),IC50
1,"CN(CCNC(=S)NCc1ccc(F)cc1)CCNc1cc(N2CCCC2)nc(N2CCCC2)n1 [Example 46, N-{2-[{2-[(2,6-dipyrrolidin-1-ylpyrimidin-4-yl)amino]ethyl}(methyl)amino]ethyl}-N′-(4-fluorobenzyl)thiourea]",≤ 10 µM
2,"CN(CCCNC(=O)Nc1ccc(Cl)c(C(F)(F)F)c1)CCCNc1cc(N2CCCC2)nc(N2CCCC2)n1 [Example 21, N-[4-chloro-3-(trifluoromethyl)phenyl]-N′-{3-[{3-[(2,6-dipyrrolidin-1-ylpyrimidin-4-yl)amino]propyl}(methyl)amino]propyl}urea]",≤ 10 µM
3,"CN(CCNC(=S)Nc1ccc(Cl)nc1)CCNc1cc(N2CCCC2)nc(N2CCCC2)n1 [Example 53, N-(6-chloropyridin-3-yl)-N′-{2-[{2-[(2,6-dipyrrolidin-1-ylpyrimidin-4-yl)amino]ethyl}(methyl)amino]ethyl}thiourea]",≤ 10 µM
4,"CN(CCNc1cc(N2CCCC2)nc(N2CCCC2)n1)CCNS(=O)(=O)c1ccc([N+](=O)[O-])cc1 [Example 87, N-{2-[{2-[(2,6-dipyrrolidin-1-ylpyrimidin-4-yl)amino]ethyl}(methyl)amino]ethyl}-4-nitrobenzenesulfonamide]",≤ 10 µM
5,"CN(CCNC(=S)Nc1ccc(Oc2ccccc2)cc1)CCNc1cc(N2CCCC2)nc(N2CCCC2)n1 [Example 36, N-{2-[{2-[(2,6-dipyrrolidin-1-ylpyrimidin-4-yl)amino]ethyl}(methyl)amino]ethyl}-N′-(4-phenoxyphenyl)thiourea]",≤ 10 µM
6,"CN(CCNC(=O)c1cccc2c1-c1ccccc1C2=O)CCNc1cc(N2CCCC2)nc(N2CCCC2)n1 [Example 85, N-{2-[{2-[(2,6-dipyrrolidin-1-ylpyrimidin-4-yl)amino]ethyl}(methyl)amino]ethyl}-9-oxo-9H-fluorene-4-carboxamide]",≤ 10 µM
7,"CN(CCNC(=S)NCC1CCCO1)CCNc1cc(N2CCCC2)nc(N2CCCC2)n1 (stereo not shown) [Example 31, N-{2-[{2-[(2,6-dipyrrolidin-1-ylpyrimidin-4-yl)amino]ethyl}(methyl)amino]ethyl}-N′-(tetrahydrofuran-2-ylmethyl)thiourea]",≤ 10 µM
8,"CN(CCNC(=S)Nc1ccc(N(C)C)cc1)CCNc1cc(N2CCCC2)nc(N2CCCC2)n1 [Example 76, N-[4-(dimethylamino)phenyl]-N′-{2-[{2-[(2,6-dipyrrolidin-1-ylpyrimidin-4-yl)amino]ethyl}(methyl)amino]ethyl}thiourea]",≤ 10 µM
9,"CCN(CC)c1cc(NCCN(C)CCNC(=S)Nc2ccc(Cl)cc2)nc(N(CC)CC)n1 [Example 71, N-{2-[(2-{[2,6-bis(diethylamino)pyrimidin-4-yl]amino}ethyl)(methyl)amino]ethyl}-N′-(4-chlorophenyl)thiourea]",≤ 10 µM
10,"CCNC(=S)NCCN(C)CCNc1cc(N2CCCC2)nc(N2CCCC2)n1 [Example 28, N-{2-[{2-[(2,6-dipyrrolidin-1-ylpyrimidin-4-yl)amino]ethyl}(methyl)amino]ethyl}-N′-ethylthiourea]",≤ 10 µM
11,"CN(CCNC(=S)Nc1ccc(Cl)c(F)c1)CCNc1cc(N2CCCC2)nc(N2CCCC2)n1 [Example 56, N-(4-chloro-3-fluorophenyl)-N′-{2-[{2-[(2,6-dipyrrolidin-1-ylpyrimidin-4-yl)amino]ethyl}(methyl)amino]ethyl}thiourea]",≤ 10 µM
12,"CN(CCNC(=S)Nc1ccc(Cl)cc1)CCNc1cc(N(C)C)nc(N(C)C)n1 [Example 73, N-{2-[(2-{[2,6-bis(dimethylamino)pyrimidin-4-yl]amino}ethyl)(methyl)amino]ethyl}-N′-(4-chlorophenyl)thiourea]",≤ 10 µM
13,"CN(CCNC(=S)Nc1cccnc1Oc1ccc(F)cc1F)CCNc1cc(N2CCCC2)nc(N2CCCC2)n1 [Example 47, N-[2-(2,4-difluorophenoxy)pyridin-3-yl]-N′-{2-[{2-[(2,6-dipyrrolidin-1-ylpyrimidin-4-yl)amino]ethyl}(methyl)amino]ethyl}thiourea]",≤ 10 µM
